# Experimental data published in US8637043B2, “Compositions useful as ligands for the formyl peptide receptor like 1 receptor and methods of use thereof” (Chemocentryx, Inc., priority 2001, dated 2014).
# Not every detail of the peptide structures is certain; ends, links or a residue may be inferred. Ends that are not written are not given here.
# Target: T1, human FPRL1 (Homo sapiens, UniProt P25090)
# T1 construct: Full length cDNA encoding FPRL1 was cloned, using the polymerase chain reaction (PCR), from genomic DNA isolated from undifferentiated HL-60 cells; expressed in transfected cells; linearized FPRL1/pcDNA3.1, electroporation
# T1 sequence (P25090 1-351): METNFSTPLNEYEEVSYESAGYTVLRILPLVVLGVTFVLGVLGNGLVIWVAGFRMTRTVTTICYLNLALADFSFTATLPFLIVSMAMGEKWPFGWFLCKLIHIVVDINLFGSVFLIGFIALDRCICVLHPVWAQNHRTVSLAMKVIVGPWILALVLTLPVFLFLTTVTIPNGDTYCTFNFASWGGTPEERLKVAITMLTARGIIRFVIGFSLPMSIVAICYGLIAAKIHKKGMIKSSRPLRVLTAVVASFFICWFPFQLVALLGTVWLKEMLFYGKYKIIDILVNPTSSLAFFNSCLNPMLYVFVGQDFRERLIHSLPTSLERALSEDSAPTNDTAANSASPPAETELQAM
# Assay: Calcium flux in FPRL1-L1.2 transfectants
# Format: cell-based
# Conditions: qualitative rating high, moderate, low, see Example 9
# Experimental: Ca^2+ mobilization responses were performed using the intracellular ratiometric fluorescent dye, lndo-1. Cells were loaded with Indo-1/AM (3 μM; Molecular Probes, Eugene, Oreg.) in culture medium (45 min, 20° C., 10^7 cells/ml). After dye loading, cells were washed once with 10 ml PBS) and resuspended at 10^6 cell/ml in HBSS containing 1% FBS. Cytosolic [Ca^2+] release was determined using excitation at 350 nm using a Photon Technology International fluorimeter (excitation at 350 nm, ratioed dual emission at 400 and 490 nm).
# The functional activities of CKβ8-1 (25-116) were investigated in human FPRL1-L1.2 transfectants and in native L1.2 cells. Stable expression of formyl peptide-like receptor 1 (FPRL1) in L.1.2 cell was obtained as follows. Full length cDNA encoding FPRL1 was cloned, using the polymerase chain reaction (PCR), from genomic DNA isolated from undifferentiated HL-60 cells. […] Twenty micrograms of the FPRL1/pcDNA3.1 construct were linearized by digestion with Bsm1 (New England Biolabs, Beverly, Mass.) and used to transfect the murine B cell line L1.2 as follows. […] After 2-3 weeks under drug selection, stable geneticin-resistant FPLR1 expressing cells were assessed for their ability to mobilize Ca^++ in response to SHAAGtide or CKbeta 8-1 at concentrations of 1 to 1000 nM. […]
# All ligands were added in a dose response manner and the peak calcium flux response determined.
sequence,measurement,setting,value
RRKIGPQMTLSHAAG [SEQ ID NO: 2],Designation and FPRL1 Activity,,low FPRL1 activity
same,Designation and FPRL1 Activity,listed as CCXP2,Low
